{"source": "the supplement of paper PMC12370961", "assay_in_all_cases": "differential drug sensitivity score (dDSS) relative to sarcoma reference cohort mean DSS (DSS units (0-100 scale difference)); higher = more selective sensitivity than reference sarcomas", "details_in_all_cases": "exposure time: 72 h; concentration range: 10-10000 nM", "key": {"CDS-ZH002 direct": {"tested_on": "CDS-ZH002 direct (CIC-DUX4 sarcoma cells right after isolation)", "procedure": "(§1)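 Drug response profiling of patient-derived Ewing sarcoma and CIC::DUX4 sarcoma tumoroid models (or cells tested directly after isolation from the tumor, 'direct'). The DSS is the normalised AUC (0-100); dDSS is the sample DSS minus the mean DSS of a 34-sarcoma reference cohort profiled in the same lab.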"}, "ES-ZH009": {"tested_on": "ES-ZH009 (patient-derived Ewing sarcoma tumoroid)", "procedure": "as §1"}, "ES-ZH016 direct": {"tested_on": "ES-ZH016 direct (Ewing sarcoma cells right after isolation)", "procedure": "as §1"}, "ES-ZH016": {"tested_on": "ES-ZH016 (patient-derived Ewing sarcoma tumoroid)", "procedure": "as §1"}, "ES-ZH001": {"tested_on": "ES-ZH001 (patient-derived Ewing sarcoma tumoroid)", "procedure": "as §1"}, "ES-ZH007": {"tested_on": "ES-ZH007 (patient-derived Ewing sarcoma tumoroid)", "procedure": "as §1"}, "ES-ZH002": {"tested_on": "ES-ZH002 (patient-derived Ewing sarcoma tumoroid)", "procedure": "as §1"}, "ES-ZH004": {"tested_on": "ES-ZH004 (patient-derived Ewing sarcoma tumoroid)", "procedure": "as §1"}, "CDS-ZH001": {"tested_on": "CDS-ZH001 (patient-derived CIC-DUX4 sarcoma tumoroid)", "procedure": "as §1"}, "CDS-ZH002": {"tested_on": "CDS-ZH002 (patient-derived CIC-DUX4 sarcoma tumoroid)", "procedure": "as §1"}, "ES-ZH008": {"tested_on": "ES-ZH008 (patient-derived Ewing sarcoma tumoroid)", "procedure": "as §1"}, "CDS-ZH001-2": {"tested_on": "CDS-ZH001-2 (patient-derived CIC-DUX4 sarcoma tumoroid)", "procedure": "as §1"}, "CDS-ZH003": {"tested_on": "CDS-ZH003 (patient-derived CIC-DUX4 sarcoma tumoroid)", "procedure": "as §1"}}}
{"compound": "Cc1ccc(C(=O)NCCCCCC(=O)Nc2ccccc2N)cc1", "note": "[RG2833]", "values": [{"measurement": "differential drug sensitivity score", "setting": "CDS-ZH002 direct", "value": -0.9}, {"measurement": "differential drug sensitivity score", "setting": "ES-ZH009", "value": -0.6}, {"measurement": "differential drug sensitivity score", "setting": "ES-ZH016 direct", "value": 3.5}, {"measurement": "differential drug sensitivity score", "setting": "ES-ZH016", "value": -0.2}, {"measurement": "differential drug sensitivity score", "setting": "ES-ZH001", "value": 1}, {"measurement": "differential drug sensitivity score", "setting": "ES-ZH007", "value": 1.8}, {"measurement": "differential drug sensitivity score", "setting": "ES-ZH002", "value": 2.8}, {"measurement": "differential drug sensitivity score", "setting": "ES-ZH004", "value": 1.7}, {"measurement": "differential drug sensitivity score", "setting": "CDS-ZH001", "value": -1.4}, {"measurement": "differential drug sensitivity score", "setting": "CDS-ZH002", "value": -1.6}, {"measurement": "differential drug sensitivity score", "setting": "ES-ZH008", "value": 3.5}, {"measurement": "differential drug sensitivity score", "setting": "CDS-ZH001-2", "value": -1.5}, {"measurement": "differential drug sensitivity score", "setting": "CDS-ZH003", "value": -1.3}]}
